The source of these data is paper PMC5454536.

Protein sequences, listed by entry. Tags and fused reporters are not part of them. Lines headed by an entry give the natural chain unless they say otherwise; changes in a name come on top.
UniProt P0AGA2: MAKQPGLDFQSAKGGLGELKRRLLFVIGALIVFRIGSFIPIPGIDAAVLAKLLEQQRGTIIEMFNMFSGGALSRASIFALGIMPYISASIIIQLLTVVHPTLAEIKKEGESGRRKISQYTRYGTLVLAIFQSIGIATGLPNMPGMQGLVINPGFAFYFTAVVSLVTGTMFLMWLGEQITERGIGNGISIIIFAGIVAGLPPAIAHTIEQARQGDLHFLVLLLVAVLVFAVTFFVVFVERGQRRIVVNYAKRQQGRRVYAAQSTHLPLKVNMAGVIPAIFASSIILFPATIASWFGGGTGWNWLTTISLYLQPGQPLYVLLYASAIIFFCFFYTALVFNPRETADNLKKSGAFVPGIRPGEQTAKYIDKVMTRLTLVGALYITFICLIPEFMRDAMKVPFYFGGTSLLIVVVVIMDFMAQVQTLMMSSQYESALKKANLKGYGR

The test concerns the target T1, SRP receptor (SR), FtsY (E. coli) (UniProt P10121).
T1 sequence: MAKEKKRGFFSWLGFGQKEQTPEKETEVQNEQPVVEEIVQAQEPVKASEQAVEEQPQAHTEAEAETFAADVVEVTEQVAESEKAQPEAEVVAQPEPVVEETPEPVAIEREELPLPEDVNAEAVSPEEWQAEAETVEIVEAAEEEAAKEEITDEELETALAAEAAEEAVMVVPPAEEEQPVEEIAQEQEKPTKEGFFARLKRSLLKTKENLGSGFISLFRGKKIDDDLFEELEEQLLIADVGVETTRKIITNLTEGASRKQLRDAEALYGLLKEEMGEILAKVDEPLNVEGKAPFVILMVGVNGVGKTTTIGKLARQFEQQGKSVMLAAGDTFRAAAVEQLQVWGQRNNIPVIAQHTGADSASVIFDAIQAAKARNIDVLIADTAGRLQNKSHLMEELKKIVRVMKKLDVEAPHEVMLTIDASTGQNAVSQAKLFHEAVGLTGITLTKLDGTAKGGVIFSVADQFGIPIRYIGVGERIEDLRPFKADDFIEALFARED
Briefly: cryo-EM structure; RNC_(1A9L)-85 or -135 (250 nM) with SRP, SR and SecYEG, GDP:AlFx, Buffer C (50 mM HEPES-KOH, 85 mM KOAc, 15 mM Mg(OAc)2, 0.02% DDM, 5 mM spermidine, 0.5 mM spermine); both purified.

These are yes or no findings as the source states them, for the method shown. Some binding calls cover weakened binding; strength is not graded here.

Turning to “SecYEG translocon (from UniProt P0AGA2 14-429; P0AG96 1-127; P0AG99 1-110) (complex)”, the binding result is recorded as “binds”.
